According to PMC10391610, “Survivin prevents the polycomb repressor complex 2 from methylating histone 3 lysine 27” (iScience, 2023):
No constants are given. Whether binding was seen depends on the method and setting. Some binding calls cover weakened binding; strength is not graded here.

Amino acid sequences for entries named in this document (tags omitted).
UniProt O15392: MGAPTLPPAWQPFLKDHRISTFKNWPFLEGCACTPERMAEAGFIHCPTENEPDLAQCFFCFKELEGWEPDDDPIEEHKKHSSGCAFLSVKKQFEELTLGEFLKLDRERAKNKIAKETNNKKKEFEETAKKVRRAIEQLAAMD

Experiments:
[1] = biological target: EZH2_(172-211) peptide (human); assay: BLI; EZH2 peptide (50 μM) immobilised on AR2G biosensors, quenched with ethanolamine; survivin as analyte at 100, 33.3, 11.1 and 3.7 nM; survivin SEC buffer (50 mM Tris pH 7.5, 150 mM NaCl, 1 mM DTT); 30°C; Bayesian 1:1 model, apparent dissociation constant; both purified
EZH2 peptide … (human) [2] = biological target: T1, EZH2 peptide … (human (by the printed UniProt entry)); assay: peptide or protein array; PEPperCHIP microarray of 15-residue peptides (10 residues overlap) on the chip; survivin 1 µg/ml in incubation buffer; detected with 6x His Tag Antibody DyLight680; both purified
T1 sequence (peptide): DRRGKVYDKYMCSFL

JARID2 peptide … (human) [3] = biological target: T2, JARID2 peptide … (human (by the printed UniProt entry)); assay: as above
T2 sequence (peptide): LKSQGITMDELPLIG

EZH2 peptide … (human) [4] = biological target: T3, EZH2 peptide … (human (by the printed UniProt entry)); assay: as above; remark: listed apart in the source
T3 sequence (peptide): KRVKSEYMRLRQLKR

EZH2 peptide … (human) [5] = biological target: T4, EZH2 peptide … (human (by the printed UniProt entry)); assay: as above; remark: listed apart in the source
T4 sequence (peptide): AKRAIQTGEELFFDY

EED peptide … (human) [6] = biological target: T5, EED peptide … (human (by the printed UniProt entry)); assay: as above
T5 sequence (peptide): WKSKKCKYSFKCVNS

EED peptide … (human) [7] = biological target: T6, EED peptide … (human (by the printed UniProt entry)); assay: as above; remark: listed apart in the source
T6 sequence (peptide): ADENFYTCAWTYDSN

EZH2 peptide … (human) [8] = biological target: T7, EZH2 peptide … (human (by the printed UniProt entry)); assay: as above; remark: listed apart in the source
T7 sequence (peptide): SQDEADRRGKVYDKY

JARID2 peptide … (human) [9] = biological target: T8, JARID2 peptide … (human (by the printed UniProt entry)); assay: as above; remark: listed apart in the source
T8 sequence (peptide): AYCQYLLSYDSLSPE

SUZ12 peptide … (human) [10] = biological target: T9, SUZ12 peptide … (human (by the printed UniProt entry)); assay: as above
T9 sequence (peptide): CTLNCRKLYSLLKHL

EED peptide … (human) [11] = biological target: T10, EED peptide … (human (by the printed UniProt entry)); assay: as above; remark: listed apart in the source
T10 sequence (peptide): PGRKSWGKGKWKSKK

EED peptide … (human) [12] = biological target: T11, EED peptide … (human (by the printed UniProt entry)); assay: as above; remark: listed apart in the source
T11 sequence (peptide): IFGGVEGHRDEVLSA

JARID2 peptide … (human) [13] = biological target: T12, JARID2 peptide … (human (by the printed UniProt entry)); assay: as above; remark: listed apart in the source
T12 sequence (peptide): LPLIGGCELDLACFF

SUZ12 peptide … (human) [14] = biological target: T13, SUZ12 peptide … (human (by the printed UniProt entry)); assay: as above; remark: listed apart in the source
T13 sequence (peptide): EARDDLHCPWCTLNC

EZH2 peptide … (human) [15] = biological target: T14, EZH2 peptide … (human (by the printed UniProt entry)); assay: as above; remark: listed apart in the source
T14 sequence (peptide): KSEKGPVCWRKRVKS

JARID2 peptide … (human) [16] = biological target: T15, JARID2 peptide … (human (by the printed UniProt entry)); assay: as above; remark: listed apart in the source
T15 sequence (peptide): LLSYDSLSPEEHRRL

JARID2 peptide … (human) [17] = biological target: T16, JARID2 peptide … (human (by the printed UniProt entry)); assay: as above; remark: listed apart in the source
T16 sequence (peptide): AKLQEAYCQYLLSYD

EZH2 peptide … (human) [18] = biological target: T17, EZH2 peptide … (human (by the printed UniProt entry)); assay: as above; remark: listed apart in the source
T17 sequence (peptide): FISEYCGEIISQDEA

EED peptide … (human) [19] = biological target: T18, EED peptide … (human (by the printed UniProt entry)); assay: as above; remark: listed apart in the source
T18 sequence (peptide): DIHRNYVDCVRWLGD

EED peptide … (human) [20] = biological target: T19, EED peptide … (human (by the printed UniProt entry)); assay: as above; remark: listed apart in the source
T19 sequence (peptide): NTPNAPGRKSWGKGK

JARID2 peptide … (human) [21] = biological target: T20, JARID2 peptide … (human (by the printed UniProt entry)); assay: as above; remark: listed apart in the source
T20 sequence (peptide): VQRLACIKKHLKSQG

EZH2 peptide … (human) [22] = biological target: T21, EZH2 peptide … (human (by the printed UniProt entry)); assay: as above; remark: listed apart in the source
T21 sequence (peptide): LFFDYRYSQADALKY

SUZ12 peptide … (human) [23] = biological target: T22, SUZ12 peptide … (human (by the printed UniProt entry)); assay: as above; remark: listed apart in the source
T22 sequence (peptide): FSDVNEGEKEVMKLW

EED peptide … (human) [24] = biological target: T23, EED peptide … (human (by the printed UniProt entry)); assay: as above; remark: listed apart in the source
T23 sequence (peptide): YSQCDIWYMRFSMDF

EED peptide … (human) [25] = biological target: T24, EED peptide … (human (by the printed UniProt entry)); assay: as above; remark: listed apart in the source
T24 sequence (peptide): LILSKSCENAIVCWK

EZH2 peptide … (human) [26] = biological target: T25, EZH2 peptide … (human (by the printed UniProt entry)); assay: as above; remark: listed apart in the source
T25 sequence (peptide): PVCWRKRVKSEYMRL

JARID2 peptide … (human) [27] = biological target: T26, JARID2 peptide … (human (by the printed UniProt entry)); assay: as above; remark: listed apart in the source
T26 sequence (peptide): AQDRLAKLQEAYCQY

JARID2 peptide … (human) [28] = biological target: T27, JARID2 peptide … (human (by the printed UniProt entry)); assay: as above; remark: listed apart in the source
T27 sequence (peptide): ITMDELPLIGGCELD

EZH2 peptide … (human) [29] = biological target: T28, EZH2 peptide … (human (by the printed UniProt entry)); assay: as above; remark: listed apart in the source
T28 sequence (peptide): VLHNIPYMGDEVLDQ

EZH2 peptide … (human) [30] = biological target: T29, EZH2 peptide … (human (by the printed UniProt entry)); assay: as above; remark: listed apart in the source
T29 sequence (peptide): VQKNEFISEYCGEII

EED peptide … (human) [31] = biological target: T30, EED peptide … (human (by the printed UniProt entry)); assay: as above; remark: listed apart in the source
T30 sequence (peptide): DFSTRDIHRNYVDCV

EED peptide … (human) [32] = biological target: T31, EED peptide … (human (by the printed UniProt entry)); assay: as above; remark: listed apart in the source
T31 sequence (peptide): WGKGKWKSKKCKYSF

EED peptide … (human) [33] = biological target: T32, EED peptide … (human (by the printed UniProt entry)); assay: as above; remark: listed apart in the source
T32 sequence (peptide): LGRFDYSQCDIWYMR

EZH2 peptide … (human) [34] = biological target: T33, EZH2 peptide … (human (by the printed UniProt entry)); assay: as above; remark: listed apart in the source
T33 sequence (peptide): PDLCLTCGAADHWDS

JARID2 peptide … (human) [35] = biological target: T34, JARID2 peptide … (human (by the printed UniProt entry)); assay: as above; remark: listed apart in the source
T34 sequence (peptide): GCELDLACFFRLINE

EZH2 peptide … (human) [36] = biological target: T35, EZH2 peptide … (human (by the printed UniProt entry)); assay: as above; remark: listed apart in the source
T35 sequence (peptide): TCGAADHWDSKNVSC

EZH2 peptide … (human) [37] = biological target: T36, EZH2 peptide … (human (by the printed UniProt entry)); assay: as above; remark: listed apart in the source
T36 sequence (peptide): QTGEELFFDYRYSQA

EZH2 peptide … (human) [38] = biological target: T37, EZH2 peptide … (human (by the printed UniProt entry)); assay: as above; remark: listed apart in the source
T37 sequence (peptide): RYSQADALKYVGIER

EZH2 peptide … (human) [39] = biological target: T38, EZH2 peptide … (human (by the printed UniProt entry)); assay: as above; remark: listed apart in the source
T38 sequence (peptide): DALKYVGIEREMEIP

JARID2 peptide … (human) [40] = biological target: T39, JARID2 peptide … (human (by the printed UniProt entry)); assay: as above; remark: listed apart in the source
T39 sequence (peptide): RWGPNVQRLACIKKH

EED peptide … (human) [41] = biological target: T40, EED peptide … (human (by the printed UniProt entry)); assay: as above; remark: listed apart in the source
T40 sequence (peptide): EGHRDEVLSADYDLL

SUZ12 peptide … (human) [42] = biological target: T41, SUZ12 peptide … (human (by the printed UniProt entry)); assay: as above; remark: listed apart in the source
T41 sequence (peptide): TQIEEFSDVNEGEKE

EED peptide … (human) [43] = biological target: T42, EED peptide … (human (by the printed UniProt entry)); assay: as above; remark: listed apart in the source
T42 sequence (peptide): DTLVAIFGGVEGHRD

SUZ12 peptide … (human) [44] = biological target: T43, SUZ12 peptide … (human (by the printed UniProt entry)); assay: as above; remark: listed apart in the source
T43 sequence (peptide): LLKHLKLCHSRFIFN

EZH2 peptide … (human) [45] = biological target: T44, EZH2 peptide … (human (by the printed UniProt entry)); assay: as above; remark: listed apart in the source
T44 sequence (peptide): VEDETVLHNIPYMGD

EED peptide … (human) [46] = biological target: T45, EED peptide … (human (by the printed UniProt entry)); assay: as above; remark: listed apart in the source
T45 sequence (peptide): YVDADADENFYTCAW

Measured: binding

survivin (His-tagged, from pHIS8) (from UniProt O15392 1-142)
binds: [1]

survivin (from UniProt O15392 1-142)
not listed: [1]
binds: all other assays above
